In EP4541822A2:
No constants are given. Whether binding was seen depends on the method and setting. Some results given as binding are weak or reduced against the parent protein; the word gives no strength.

B1: multivalent domain (SIM)6 (protein)
chain: MKHHHHHHHENLYFQGAMSSKVDVIDLTIESSSDEEEDPPAKRGGSGGSGGSGGSKVDVIDLTIESSSDEEEDPPAKRGGSGGSGGSGGSKVDVIDLTIESSSDEEEDPPAKRGAMKGGSGGSGGSGGSMSSKVDVIDLTIESSSDEEEDPPAKRGGSVGSGGSGGSKVDVIDLTIESSSDEEEDPPAKRGGSGGSGGRGGSKVDVIDLTIESSSDEEEDPPAKRGAMRCWGGSGGSGGSGGSMG
B2: recombinant protein (SIM)6-R4L (protein)
chain: MKHHHHHHHENLYFQGAMSSKVDVIDLTIESSSDEEEDPPAKRGGSGGSGGSGGSKVDVIDLTIESSSDEEEDPPAKRGGSGGSGGSGGSKVDVIDLTIESSSDEEEDPPAKRGAMKGGSGGSGGSGGSMSSKVDVIDLTIESSSDEEEDPPAKRGGSVGSGGSGGSKVDVIDLTIESSSDEEEDPPAKRGGSGGSGGRGGSKVDVIDLTIESSSDEEEDPPAKRGAMRCWGGSGGSGGSGGSMGMCYRKCRGGRRWCYQKCGGSGGSGGSGGS

Experiments:
[1] = molecular target: recombinant protein (SUM)5-TRAIL; test: confocal imaging of SJSA-1 cells, (SIM)6 (Red) plus (SUM)5-TRAIL (Green), 100 nM each (Fig. 2B)
[2] = molecular target: recombinant protein (SUM)5-TRAIL; test: confocal imaging of SJSA-1 cells, (SIM)6-R4L (Red) plus (SUM)5-TRAIL (Green), 100 nM each (Fig. 2C)

| binding [1] | binding [2] | Binder |
| --- | --- | --- |
| binds | – | B1 |
| – | binds | B2 |
